Data as given in PubChem BioAssay AID652243 (Drosophila RNAi Screening Center, 2013).
The deposit covers about 24,000 reagents; below is a random part of those that have a named target and a result. Of all reagents, 246 (1%) were called active. 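Plates not normalised; calls are printed but the firefly/Renilla ratio behind them is not deposited; fold cut for lowering reported inconsistently.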 The raw values are shown without normalisation. Entries without a mark were called inactive. Reagent sequences are not shown. The record does not give: the amount of reagent.

Screen: 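Fly regulators of androgen-dependent reporter output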 (primary screen)
Cells: Drosophila S2R+ cells
Knock-down reagent: long dsRNA against Drosophila genes
Time to read-out: 72 h (48 h, then 24 h hormone)
Treatment: synthetic androgen R1881 at 10 nM for 24 h
Measurement: 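Per-well raw luminescence of the androgen-driven firefly reporter and of the Renilla control, two replicates each, without normalisation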
Reading the numbers: firefly reporter light: higher = more light from androgen-responsive reporter; Renilla control light: higher = more constitutive control signal (cell number, transfection)
Active means: 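Hit when the log firefly-to-Renilla ratio dropped or increased by a fixed fold versus the mean of GFP or LacZ controls across duplicate plates; lowering cut given as 1.5 and as 3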
Calls: active = hit: reporter lowered or raised; inactive = no hit

| target | dsRNA | firefly reporter light, replicate 1 | firefly reporter light, replicate 2 | Renilla control light, replicate 1 | Renilla control light, replicate 2 |
| --- | --- | --- | --- | --- | --- |
| Nepl13 | DRSC15632 | 1.63e5 | 1.77e5 | 2.06e6 | 2.13e6 |
| CG30008 | DRSC21576 | 8.15e5 | 9.50e5 | 2.30e6 | 2.03e6 |
| CG30008 | DRSC27726 | 4.71e5 | 4.69e5 | 5.65e5 | 6.71e5 |
| ArfGAP3 | DRSC11794 | 33948 | 56548 | 4.74e5 | 5.08e5 |
| ArfGAP3 | DRSC25639 | 5.95e5 | 8.13e5 | 7.75e5 | 8.11e5 |
| CG7322 | DRSC20036 | 1.39e5 | 1.45e5 | 5.79e5 | 2.34e5 |
| CG7322 | DRSC26735 | 4.36e5 | 3.80e5 | 5.98e5 | 6.61e5 |
| PNPase | DRSC14304 | 1.18e5 | 1.05e5 | 1.08e6 | 7.85e5 |
| Vps26 | DRSC18555 | 12554 (active) | 13489 | 2.87e5 | 2.03e5 |
| Vps26 | DRSC23556 | 9.07e5 | 1.09e6 | 4.85e5 | 7.18e5 |
| unc-5 | DRSC05545 | 6.25e5 | 6.02e5 | 2.12e6 | 2.01e6 |
| unc-5 | DRSC07711 | 68156 | 47085 | 1.53e6 | 1.53e6 |
| unc-5 | DRSC07712 | 38414 | 54105 | 1.21e6 | 1.21e6 |
| CG1927 | DRSC08146 | 1.16e6 | 9.03e5 | 2.41e6 | 1.16e6 |

Entries listed so far called active (1):
| target | dsRNA | firefly reporter light, replicate 1 | firefly reporter light, replicate 2 | Renilla control light, replicate 1 | Renilla control light, replicate 2 |
| --- | --- | --- | --- | --- | --- |
| Vps26 | DRSC18555 | 12554 (active) | 13489 | 2.87e5 | 2.03e5 |

Further reagents follow:
| target | dsRNA | firefly reporter light, replicate 1 | firefly reporter light, replicate 2 | Renilla control light, replicate 1 | Renilla control light, replicate 2 |
| --- | --- | --- | --- | --- | --- |
| Egfrap | DRSC09963 | 2.21e5 | 1.88e5 | 2.33e6 | 2.06e6 |
| Egfrap | DRSC09964 | 70428 | 1.02e5 | 1.12e6 | 1.60e6 |
| Egfrap | DRSC25261 | 7.04e5 | 8.38e5 | 1.14e6 | 1.25e6 |
| Mdh1 | DRSC02846 | 3.26e5 | 2.49e5 | 2.42e6 | 2.10e6 |
| CG42685 | DRSC01971 | 3.25e5 | 3.30e5 | 2.03e6 | 1.94e6 |
| CG42685 | DRSC38625 | 9.24e5 | 8.08e5 | 2.33e6 | 1.64e6 |
| her | DRSC03543 | 4.29e5 | 1.09e6 | 1.02e6 | 2.09e6 |
| PpY-55A | DRSC07513 | 83203 | 1.04e5 | 1.28e6 | 1.28e6 |
| PpY-55A | DRSC23328 | 9.14e5 | 9.21e5 | 1.10e6 | 9.29e5 |
| PpY-55A | DRSC26547 | 3.96e5 | 3.01e5 | 3.78e5 | 1.32e5 |
